# PubChem BioAssay AID493246 | Drosophila RNAi Screening Center, 2011
# Test: 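Identify essential fly genes by loss of cell viability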 (primary screen)
# Cells: Drosophila Kc and S2R+ cells
# Knock-down reagent: long dsRNA against Drosophila genes
# Detection: 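Cell number per well after knock-down, printed as raw plate values; calls were based on per-plate z-scores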
# Reading the numbers: Kc cell number and S2R+ cell number: higher = more cells remaining
# Call rule: 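Active when the per-plate z-score of cell number is 3 or more in the direction of fewer cells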
# The screen tested about 21,000 reagents; below is a random part of those with a known target gene and a result. Over the whole deposit, 429 (2%) are marked active. 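Values are raw and not normalised between plates; calls rest on per-plate z-scores that were not deposited.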 Names joined by + are all predicted targets of the reagent. The record does not give: the amount of reagent, the time to read-out.
target,dsRNA,"Kc cell number, rep 1","Kc cell number, rep 2","S2R+ cell number, rep 1","S2R+ cell number, rep 2",Outcome
CG42821 + CG42822,DRSC13231,1.37e6,1.49e6,1.04e6,1.15e6,inactive
CG42821 + CG42822,DRSC13232,1.44e6,1.45e6,1.02e6,1.10e6,inactive
CG31161,DRSC16144,1.72e6,1.71e6,9.99e5,1.11e6,inactive
CG14654 (retired record),DRSC12240,1.65e6,1.72e6,1.21e6,1.38e6,inactive
CG17486,DRSC07752,1.34e6,1.39e6,1.26e6,1.23e6,inactive
CG14589,DRSC04866,1.53e6,1.61e6,1.35e6,1.44e6,inactive
CG4338,DRSC15564,1.55e6,1.64e6,1.21e6,1.37e6,inactive
frac,DRSC10867,1.27e6,1.36e6,1.27e6,1.19e6,inactive
lmgA + lmgB,DRSC03566,1.58e6,1.60e6,1.22e6,1.42e6,inactive

Taken from above.
CG17486 [DRSC07752], Outcome: inactive
Under “Outcome”, CG14654 (retired record) [DRSC12240] has inactive
Under “S2R+ cell number, rep 2”, lmgA + lmgB [DRSC03566] has 1.42e6
For “Kc cell number, rep 1”, CG31161 [DRSC16144] reads 1.72e6

Further reagents:
target,dsRNA,"Kc cell number, rep 1","Kc cell number, rep 2","S2R+ cell number, rep 1","S2R+ cell number, rep 2",Outcome
Caf1-180,DRSC17807,5.40e5,,8.20e5,,inactive
Obp19a,DRSC20487,1.52e6,1.61e6,1.05e6,1.21e6,inactive
Tsp47F,DRSC07325,1.38e6,1.45e6,8.66e5,9.78e5,inactive
CG33722 + CG18749,DRSC12674,1.44e6,1.41e6,1.10e6,1.24e6,inactive
CG33722 + CG18749,DRSC15386,1.55e6,1.55e6,1.35e6,1.51e6,inactive
scw,DRSC01711,1.56e6,1.55e6,9.72e5,1.25e6,inactive
scw,DRSC21252,1.82e6,1.82e6,1.20e6,1.34e6,inactive
udt,DRSC14214,1.54e6,1.68e6,1.02e6,1.11e6,inactive
prage,DRSC17957,1.36e6,1.41e6,1.01e6,1.06e6,inactive
prage,DRSC17958,3.00e5,,4.88e5,,active
prage,DRSC18490,1.46e6,1.42e6,1.02e6,1.02e6,inactive
prage,DRSC18497,1.46e6,1.42e6,9.88e5,1.11e6,inactive
Nmnat,DRSC14644,1.65e6,1.67e6,9.87e5,1.08e6,inactive
CG32333,DRSC08627,1.39e6,1.46e6,1.10e6,1.13e6,inactive
CG32333,DRSC08629,1.42e6,1.29e6,7.71e5,9.66e5,inactive
